Some peptides are written in HELM: one residue between dots, names in brackets for other building blocks, links after the first $.
Test: general procedure: Boc solid-phase peptide synthesis; chloromethylated resin or hydroxymethyl resin

PEPTIDE1{A.[dS].C.K.N.F.F.[dW].K.T.F.T.S.C}$PEPTIDE1,PEPTIDE1,3:R3-14:R3$$$V2.0
oxidative folding yield (oxidative folding step, from reduced form): 29.6%
isolated yield (whole synthesis): 34.0%

Source: patent US4093574A (Eli Lilly and Company, priority 1977, dated 1978)
